The target in experiment [1] is nucleotide-binding oligomerization domain-containing protein 2 (NOD2), N-terminal NanoBiT fusion constructs (human) (UniProt Q9HC29). As to the kind of experiment: split reporter; SmBiT-NOD2 and LgBiT-NOD2 co-transfected (30 ng of each construct) in wild-type HEK 293T cells; stimulated with 200 ng/ml L18-MDP for 24 h; NanoGlo luminescence, relative response ratio against positive and negative controls.

Sequences of proteins named here, by UniProt entry; tags and fusion partners are left off.
UniProt Q9HC29: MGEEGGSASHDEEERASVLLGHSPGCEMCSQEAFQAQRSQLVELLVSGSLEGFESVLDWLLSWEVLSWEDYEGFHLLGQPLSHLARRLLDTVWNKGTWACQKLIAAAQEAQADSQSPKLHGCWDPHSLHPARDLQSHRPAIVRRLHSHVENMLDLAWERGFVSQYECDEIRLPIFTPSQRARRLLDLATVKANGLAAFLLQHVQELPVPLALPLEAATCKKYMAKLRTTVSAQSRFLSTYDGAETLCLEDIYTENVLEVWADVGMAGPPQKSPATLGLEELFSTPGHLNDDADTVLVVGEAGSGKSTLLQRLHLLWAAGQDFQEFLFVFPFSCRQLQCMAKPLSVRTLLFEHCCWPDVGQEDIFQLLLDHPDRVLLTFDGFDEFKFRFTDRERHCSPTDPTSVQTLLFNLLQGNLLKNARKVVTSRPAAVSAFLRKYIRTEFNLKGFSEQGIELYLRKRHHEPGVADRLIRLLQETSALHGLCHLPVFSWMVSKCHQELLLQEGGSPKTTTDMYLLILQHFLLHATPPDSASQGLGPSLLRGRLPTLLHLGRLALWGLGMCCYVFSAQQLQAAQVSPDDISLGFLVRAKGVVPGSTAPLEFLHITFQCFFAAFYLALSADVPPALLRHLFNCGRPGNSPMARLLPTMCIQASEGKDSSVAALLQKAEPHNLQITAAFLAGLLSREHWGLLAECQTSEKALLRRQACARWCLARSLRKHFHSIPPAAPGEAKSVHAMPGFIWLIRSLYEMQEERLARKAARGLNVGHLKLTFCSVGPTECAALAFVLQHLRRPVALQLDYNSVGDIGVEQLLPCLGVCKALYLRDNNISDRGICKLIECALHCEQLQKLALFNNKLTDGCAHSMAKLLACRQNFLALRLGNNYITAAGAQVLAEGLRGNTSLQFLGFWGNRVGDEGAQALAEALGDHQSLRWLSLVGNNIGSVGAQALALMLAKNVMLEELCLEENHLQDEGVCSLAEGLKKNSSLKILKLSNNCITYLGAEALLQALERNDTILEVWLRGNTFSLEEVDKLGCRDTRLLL

The target is the same in experiment [2]. Nature of the experiment: split reporter; SmBiT-NOD2 and LgBiT-NOD2 co-transfected (30 ng of each construct) in NAGK-knockout HEK 293T cells; stimulated with 200 ng/ml L18-MDP for 24 h; NanoGlo luminescence, relative response ratio against positive and negative controls.

Results are given in words; binding and its absence hold for the method and conditions named. Binding seen in cells or lysates may run through a third protein. Some results given as binding are weak or reduced against the parent protein; the word gives no strength.

Regarding “nucleotide-binding oligomerization domain-containing protein 2 (NOD2), N-terminal NanoBiT fusion constructs (from UniProt Q9HC29 1-1040)”, the values for the binding entry in experiment [1] and in experiment [2] were “binds” and “no binding (condition: in NAGK-knockout HEK 293T cells)”, respectively.

Source of the values: article PMC9477735, “Phosphorylation of muramyl peptides by NAGK is required for NOD2 activation” (Nature, 2022).
